Reference: article PMC9128087
Results are given in words; binding and its absence hold for the method and conditions named. Binding calls can cover weak binding; strength is not graded here. For some assays here: Binding seen in cells or lysates may run through a third protein.

Sequences of proteins named here, by UniProt entry; tags and fusion partners are left off. A change or cut given only in a name is not applied to a line headed by its entry.
UniProt A0A221LEJ6: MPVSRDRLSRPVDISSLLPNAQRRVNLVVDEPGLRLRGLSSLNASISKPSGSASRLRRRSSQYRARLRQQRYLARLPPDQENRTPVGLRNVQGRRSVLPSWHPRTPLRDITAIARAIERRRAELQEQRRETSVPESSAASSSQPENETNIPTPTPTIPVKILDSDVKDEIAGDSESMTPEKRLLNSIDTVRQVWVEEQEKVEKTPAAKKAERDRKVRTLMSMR

Experiments:
[1] = molecular target: Dianthus caryophyllus parallel spindle 1 (DcPS1), DcPS1-YFP^N (carnation (Dianthus caryophyllus)); test: split reporter; BiFC: YFP^N and YFP^C fusions co-expressed by Agrobacterium GV3101 injection into young N. benthamiana leaves; 2 days in weak light; confocal microscopy
[2] = molecular target: DcRAD51D, pGBKT7-DcRAD51D (carnation (Dianthus caryophyllus)); test: two-hybrid; pGBKT7 bait and pGADT7 prey cotransformed into Y2HGold yeast; growth on SD-Trp-Leu-His-Ade/X-α-Gal/AbA (QDO/X/A) at 30 °C for 3–5 days; blue colonies

binding [1]	binding [2]	Substance
binds		OSDLa-YFP^C (from UniProt A0A221LEJ6)
	binds	omission of second division like a (OSDLa), pGADT7-OSDLa (from UniProt A0A221LEJ6)
